Assay results reported in paper PMC10185471.
Results are given in words; binding and its absence hold for the method and conditions named. In cells and extracts the contact can be indirect. Some binding calls cover weakened binding; strength is not graded here.

Chains of the proteins cited; added tags and fusions are not shown. Lines headed by an entry give the natural chain unless they say otherwise; changes in a name come on top. Residues count along the entry.
UniProt Q9Z2G6, residues 22-790: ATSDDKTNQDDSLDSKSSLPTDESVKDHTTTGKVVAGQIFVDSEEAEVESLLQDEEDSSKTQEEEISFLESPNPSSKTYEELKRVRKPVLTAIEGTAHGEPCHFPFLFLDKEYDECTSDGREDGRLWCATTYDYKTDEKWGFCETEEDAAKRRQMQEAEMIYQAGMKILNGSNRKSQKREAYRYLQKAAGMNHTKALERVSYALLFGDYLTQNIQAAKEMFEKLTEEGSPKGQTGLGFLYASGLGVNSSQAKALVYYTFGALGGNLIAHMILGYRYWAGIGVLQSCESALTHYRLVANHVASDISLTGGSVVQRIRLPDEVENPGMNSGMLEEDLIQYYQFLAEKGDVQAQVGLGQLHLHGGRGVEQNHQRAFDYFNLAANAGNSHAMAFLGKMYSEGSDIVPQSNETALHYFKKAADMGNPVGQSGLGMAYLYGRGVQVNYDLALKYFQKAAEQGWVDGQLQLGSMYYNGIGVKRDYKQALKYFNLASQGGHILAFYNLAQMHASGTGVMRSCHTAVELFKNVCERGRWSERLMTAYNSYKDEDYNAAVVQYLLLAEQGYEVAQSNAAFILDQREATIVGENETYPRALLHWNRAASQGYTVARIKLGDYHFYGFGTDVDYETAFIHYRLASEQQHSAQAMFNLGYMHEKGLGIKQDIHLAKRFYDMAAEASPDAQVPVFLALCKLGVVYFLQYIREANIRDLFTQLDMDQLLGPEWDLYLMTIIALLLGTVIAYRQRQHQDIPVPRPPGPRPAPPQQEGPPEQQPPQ

Target: SEL1L (suppressor of lin-12-like), endogenous, mouse (mouse (endogenous in primary macrophages and RAW 264.7)) (UniProt Q9Z2G6)
Experiment: co-IP; immunoprecipitation of endogenous SEL1L (antibody and Protein A agarose) from lysates of mouse primary macrophages in the basal state; lysis buffer 150 mM NaCl, 1 mM EDTA, 50 mM Tris-HCl pH 7.5, 1% Triton X-100 or NP-40; 16 h at 4 °C; immunoblot; IgG control

binding: binds
B1: CALNEXIN, endogenous, mouse (protein, UniProt P35564 21-591)
chain: HDGHDDDAIDIEDDLDDVIEEVEDSKSKSDASTPPSPKVTYKAPVPTGEVYFADSFDRGSLSGWILSKAKKDDTDDEIAKYDGKWEVDEMKETKLPGDKGLVLMSRAKHHAISAKLNKPFLFDTKPLIVQYEVNFQNGIECGGAYVKLLSKTAELSLDQFHDKTPYTIMFGPDKCGEDYKLHFIFRHKNPKTGVYEEKHAKRPDADLKTYFTDKKTHLYTLILNPDNSFEILVDQSVVNSGNLLNDMTPPVNPSREIEDPEDRKPEDWDERPKIADPDAVKPDDWDEDAPSKIPDEEATKPEGWLDDEPEYIPDPDAEKPEDWDEDMDGEWEAPQIANPKCESAPGCGVWQRPMIDNPNYKGKWKPPMIDNPNYQGIWKPRKIPNPDFFEDLEPFKMTPFSAIGLELWSMTSDIFFDNFIISGDRRVVDDWANDGWGLKKAADGAAEPGVVLQMLEAAEERPWLWVVYILTVALPVFLVILFCCSGKKQSNAMEYKKTDAPQPDVKDEEGKEEEKNKRDEEEEEEKLEEKQKSDAEEDGVTGSQDEEDSKPKAEEDEILNRSPRNRKPRRE
